Data published in patent US20070117770.

Sequences of proteins named here, by UniProt entry; tags and fusion partners are left off. Residues count along the entry.
UniProt P19338, 284-710: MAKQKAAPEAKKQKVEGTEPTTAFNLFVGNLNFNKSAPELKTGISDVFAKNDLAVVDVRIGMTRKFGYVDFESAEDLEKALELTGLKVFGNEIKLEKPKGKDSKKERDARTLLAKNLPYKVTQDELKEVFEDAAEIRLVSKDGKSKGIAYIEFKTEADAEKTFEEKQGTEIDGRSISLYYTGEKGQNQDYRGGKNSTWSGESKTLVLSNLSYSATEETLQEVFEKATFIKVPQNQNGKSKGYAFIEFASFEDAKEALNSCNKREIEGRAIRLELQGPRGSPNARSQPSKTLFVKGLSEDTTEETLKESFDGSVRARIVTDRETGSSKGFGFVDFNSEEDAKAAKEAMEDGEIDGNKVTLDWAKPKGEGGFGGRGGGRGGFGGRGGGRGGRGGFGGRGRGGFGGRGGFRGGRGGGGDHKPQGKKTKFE

Tests used:
[1] = target: Nucleolin (MBP fusion, lacking N-terminal acidic stretches domain) (Homo sapiens) (UniProt P19338); assay: EMSA; conditions: purified recombinant protein; protein details: maltose binding protein (MBP) fusion; label: 32P; folded or branched DNA
[2] = target: Nucleolin (MBP fusion, lacking N-terminal acidic stretches domain) (Homo sapiens) (UniProt P19338); assay: filter binding; conditions: purified recombinant protein, protein details: maltose binding protein (MBP) fusion, label: 32P

Sequence	binding result [1]	further results
GGGGCGCGGCGGGGGGAGAAGGGTCGGGGCGGCAGGGG [11028NT]	binds more weakly	–
GTCGTAACGTCGATCAGTTTACGACAT [RND27]	–	Kd ([2]; random single-stranded control, single-stranded DNA): > 30 nM
GGGAGGGCGCGCGGGTCGGGG [8749NT]	binds more weakly	–
GGGCTGGGTCGGTCGGGCTGGGG [10816NT]	–	Kd ([2]; 60 mM KCl, 1 mM MgCl2, folded or branched DNA): > 30 nM
GGGGGCGGGAACCCCCGGGCGCCTGTGGG [6374NT]	no binding	–
GGGTCGGGGGCGGTGGTGGGCCCGCGGGGG [6183NT]	binds more weakly	–
GGGAGGGGCACGGGCCGGGGGCGGGACGGG [7733T]	binds more weakly	–

For some of these results: A negative result means that nothing was seen under these conditions. For some of these results: The comparison behind a weaker result is the experiment's own reference, which may not be listed here.
